From PubChem BioAssay AID220 (DTP/NCI, 2004) come the findings set out here.

The subject of the assay is CD8F1 mice, subcutaneous mammary adenocarcinoma, T/C%. The assay can be described thus: NCI In Vivo Anticancer Drug Screen. Data for tumor model Mammary Adenocarcinoma CD8F1 (subcutaneous) in CD8F1. Particulars: higher T/C = larger tumour. How it is done:
The antitumor activity of compounds was measured in mice bearing transplantable tumors. Survival or tumor size were measured and the results are expressed as the measurement made in the treated group (T) divided by the measurement made in the vehicle treated control group (C). The tumor model used in this assay is Mammary Adenocarcinoma CD8F1 (subcutaneous) in CD8F1

The mark [1] stands for this setting: T/C endpoint: median tumor weight (est.), dose: 0.5 mg/kg/injection, schedule: Q07DX005 (ip), vehicle: saline, evaluated on day 30.
Setting [2] is: T/C endpoint: median tumor weight (est.), dose: 2.0 mg/kg/injection, schedule: Q07DX005 (ip), vehicle: saline, evaluated on day 30.
The mark [3] stands for this setting: T/C endpoint: median tumor weight (est.), dose: 8.0 mg/kg/injection, schedule: Q07DX005 (ip), vehicle: saline, evaluated on day 30.

The list does not hold the whole screen: it covers a few groups of compounds. Other doses and runs of a compound may be missing. T/C is the treated group as % of the vehicle group. Schedule codes are those of the source, read here as Q, the interval in days (D) or hours (H), X, the number of doses. Some entries show no survivor count and are marked so; the dose need not have been tolerated. Some doses were run more than once; the values are given in rising order.

In the case of `CC1=C[C@H]2O[C@@H]3[C@H](O)[C@@H](O)[C@](C)([C@@]2(CO)CC1)[C@@]31CO1`, the T/C was 128 % of control [survivor count not shown] under setting [1]; 75 [survivor count not shown] and 113 % of control [survivor count not shown] (T/C endpoint: median tumor weight (est.), dose: 1.0 mg/kg/injection, schedule: Q07DX005 (ip), vehicle: saline, evaluated on day 30); 93 [survivor count not shown] and 114 % of control [survivor count not shown] under setting [2]; 84 [survivor count not shown] and 89 % of control [survivor count not shown] (T/C endpoint: median tumor weight (est.), dose: 4.0 mg/kg/injection, schedule: Q07DX005 (ip), vehicle: saline, evaluated on day 30); 59 % of control [survivor count not shown] under setting [3]; 45 % of control [survivor count not shown] (T/C endpoint: median tumor weight (est.), dose: 16.0 mg/kg/injection, schedule: Q07DX005 (ip), vehicle: saline, evaluated on day 30).

As to `C[C@@H](O)[C@H]1/C=C/C=C\C(=O)O[C@@H]2C[C@H]3O[C@@H]4[C@@H]5OC5(C)CCC4(COC(=O)[C@H]4O[C@]4(C)[C@@H](O)CO1)[C@]2(C)[C@]31CO1` (stereo partly specified), the T/C was 130 % of control [survivor count not shown] (T/C endpoint: median tumor weight (est.), dose: 2.5 mg/kg/injection, schedule: Q07DX005 (ip), vehicle: saline + alcohol, evaluated on day 30) and 104 % of control [survivor count not shown] (T/C endpoint: median tumor weight (est.), dose: 5.0 mg/kg/injection, schedule: Q07DX005 (ip), vehicle: saline + alcohol, evaluated on day 30).

`CC1=C[C@H]2O[C@@H]3C[C@H]4OC(=O)/C=C\C=C\C(C(C)O)OCC[C@@H](C)[C@H](O)C(=O)OC[C@@]2(CC1)[C@]4(C)[C@]31CO1` (stereo partly specified): the T/C is 89 % of control [survivor count not shown] (T/C endpoint: median tumor weight change, dose: 0.18 mg/kg/injection, schedule: Q01DX001 (ip), vehicle: Klucel (hydroxypropylcellulose) (HPC), evaluated on day 29); 65 % of control [survivor count not shown] (T/C endpoint: median tumor weight change, dose: 0.37 mg/kg/injection, schedule: Q01DX001 (ip), vehicle: Klucel (hydroxypropylcellulose) (HPC), evaluated on day 29); 52 % of control [survivor count not shown] (T/C endpoint: median tumor weight change, dose: 0.75 mg/kg/injection, schedule: Q01DX001 (ip), vehicle: Klucel (hydroxypropylcellulose) (HPC), evaluated on day 29); 49 % of control [survivor count not shown] (T/C endpoint: median tumor weight change, dose: 1.5 mg/kg/injection, schedule: Q01DX001 (ip), vehicle: Klucel (hydroxypropylcellulose) (HPC), evaluated on day 29).

In the case of `CC(=O)OCC12CCC(C)=CC1OC1C(O)C(OC(C)=O)C2(C)C12CO2` (stereo unspecified), the T/C (T/C endpoint: mean tumor weight, dose: 0.5 mg/kg/injection, schedule: Q07DX005 (ip), vehicle: saline, evaluated on day 33) was 109 % of control [survivor count not shown]; the T/C (T/C endpoint: mean tumor weight, dose: 1.0 mg/kg/injection, schedule: Q07DX005 (ip), vehicle: saline, evaluated on day 33) is 64 % of control [survivor count not shown]; the T/C (T/C endpoint: mean tumor weight, dose: 1.0 mg/kg/injection, schedule: Q07DX007 (ip), vehicle: saline, evaluated on day 44) was 80 % of control [survivor count not shown]; the T/C (T/C endpoint: mean tumor weight, dose: 2.0 mg/kg/injection, schedule: Q07DX005 (ip), vehicle: saline, evaluated on day 33) is 47 % of control [survivor count not shown]; the T/C (T/C endpoint: mean tumor weight, dose: 2.0 mg/kg/injection, schedule: Q07DX007 (ip), vehicle: saline, evaluated on day 44) is 22 % of control [survivor count not shown]; the T/C under setting [1] was 127 % of control [survivor count not shown]. Moreover, the T/C by setting is: under setting [2], 56 % of control [survivor count not shown]; under setting [3], 29 % of control [survivor count not shown]; (T/C endpoint: median tumor weight change, dose: 3.0 mg/kg/injection, schedule: Q01DX001 (ip), vehicle: Klucel (hydroxypropylcellulose) (HPC), evaluated on day 25) 79 % of control [survivor count not shown]; (T/C endpoint: median tumor weight change, dose: 3.0 mg/kg/injection, schedule: Q01DX001 (ip), vehicle: Klucel (hydroxypropylcellulose) (HPC), evaluated on day 29) 41 % of control [survivor count not shown]; (T/C endpoint: median tumor weight change, dose: 3.0 mg/kg/injection, schedule: Q01DX001 (ip), vehicle: Klucel (hydroxypropylcellulose) (HPC), evaluated on day 34) 40 % of control [survivor count not shown]; (T/C endpoint: median tumor weight change, dose: 6.0 mg/kg/injection, schedule: Q01DX001 (ip), vehicle: Klucel (hydroxypropylcellulose) (HPC), evaluated on day 25) 61 % of control [survivor count not shown]. The T/C reads like this: (T/C endpoint: median tumor weight change, dose: 6.0 mg/kg/injection, schedule: Q01DX001 (ip), vehicle: Klucel (hydroxypropylcellulose) (HPC), evaluated on day 29) 93 % of control [survivor count not shown]; (T/C endpoint: median tumor weight change, dose: 12.0 mg/kg/injection, schedule: Q01DX001 (ip), vehicle: Klucel (hydroxypropylcellulose) (HPC), evaluated on day 25) 84 % of control [survivor count not shown]; (T/C endpoint: median tumor weight change, dose: 12.0 mg/kg/injection, schedule: Q01DX001 (ip), vehicle: Klucel (hydroxypropylcellulose) (HPC), evaluated on day 29) 74 % of control [survivor count not shown]; (T/C endpoint: median tumor weight change, dose: 12.0 mg/kg/injection, schedule: Q01DX001 (ip), vehicle: Klucel (hydroxypropylcellulose) (HPC), evaluated on day 34) 29 % of control [survivor count not shown]; (T/C endpoint: median tumor weight change, dose: 24.0 mg/kg/injection, schedule: Q01DX001 (ip), vehicle: Klucel (hydroxypropylcellulose) (HPC), evaluated on day 25) 56 % of control [survivor count not shown]; (T/C endpoint: median tumor weight change, dose: 24.0 mg/kg/injection, schedule: Q01DX001 (ip), vehicle: Klucel (hydroxypropylcellulose) (HPC), evaluated on day 29) 52 % of control [survivor count not shown].

For `CC1=C[C@H]2O[C@@H]3C[C@H]4OC(=O)/C=C\C=C\C(C(C)O)OCC(O)C(C)CC(=O)OC[C@@]2(C[C@@H]1O)[C@]4(C)[C@@]31CO1` (stereo partly specified), the T/C was 91 % of control [survivor count not shown] (T/C endpoint: median tumor weight (est.), dose: 0.75 mg/kg/injection, schedule: Q07DX004 (ip), vehicle: saline, evaluated on day 30) and 108 % of control [survivor count not shown] (T/C endpoint: median tumor weight (est.), dose: 1.5 mg/kg/injection, schedule: Q07DX004 (ip), vehicle: saline, evaluated on day 30).

`CC1=CC2OC3CC4OC(=O)/C=C/C=C/C(C(C)O)OCC(O)C(C)CC(=O)OCC2(CC1O)C4(C)C31CO1` (stereo unspecified): the T/C was 118 % of control [survivor count not shown] (T/C endpoint: median tumor weight (est.), dose: 0.15 mg/kg/injection, schedule: Q07DX005 (ip), vehicle: Klucel (hydroxypropylcellulose) (HPC), evaluated on day 30); 62 % of control [survivor count not shown] (T/C endpoint: median tumor weight (est.), dose: 0.31 mg/kg/injection, schedule: Q07DX005 (ip), vehicle: Klucel (hydroxypropylcellulose) (HPC), evaluated on day 30); 90 % of control [survivor count not shown] (T/C endpoint: median tumor weight (est.), dose: 0.62 mg/kg/injection, schedule: Q07DX005 (ip), vehicle: Klucel (hydroxypropylcellulose) (HPC), evaluated on day 30); 113 % of control [survivor count not shown] (T/C endpoint: median tumor weight (est.), dose: 1.25 mg/kg/injection, schedule: Q07DX005 (ip), vehicle: Klucel (hydroxypropylcellulose) (HPC), evaluated on day 30).
